This test is described as follows: qHTS Assay for Lipid Storage Modulators in Drosophila S3 Cells.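 On cell number change: cells counted by Cell Tracker Red CMTPX staining in the red channel.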 Particulars: BODIPY lipid droplet fluorescence, 18-24 h; for cell number change: measured here: cell count max response, cells fed with added oleic acid. The method, boiled down: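 Laser-scanning cytometry quantifies lipid droplet accumulation (500–530 nm total intensity; droplet/cell object ratio) in oleic acid-fed (400 uM added) Drosophila S3 cells treated with a concentration series. 20 uM Triacsin C defined 100% inhibition.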

The mark [1] stands for this setting: measured here: cell number channel AC50, cells fed with added oleic acid.
Setting [2] is: measured here: lipid fluorescence (Fed channel) AC50, cells fed with added oleic acid.

Some of the results follow. The main result of the screen is listed elsewhere. These columns were measured beside it and carry no call. Most of these compounds were active or inconclusive in the main read-out, so they are no random draw. Potencies come from curve fits of mixed quality, noted in brackets.

Consider 17 molecules from PubChem BioAssay AID2685 (National Center for Advancing Translational Sciences (NCATS), 2010).

By AC50 is commonly meant the concentration at which the activity in the assay is half-maximal. Low readings indicate greater potency, high ones weaker potency.

For `O=C(CN1C(=O)C(=O)N(C2CCCC2)C1=O)Nc1ccc(F)cc1F`, the cell number change was -2.81%.
On to `CC1CCC(NC(=O)COC(=O)C2CC3CCCC(C2)C3=O)CC1` (configuration not stated), for which the cell number change was found to be 75%. In addition, the AC50 under setting [1] was 5.8 µM [rising, full curve].
For the molecule `CCN1C(N(C)C)=NC[C@@H]1Cc1ccccc1`, the cell number change was -11.6%. Besides, the AC50 under setting [1] was 5.8 µM [falling, single point]. Also, under setting [2], the AC50 is 6.51 µM [falling, single point].
Turning to `CCOc1ccc(CNC(=O)CCC(=O)n2nc(C)c3ccccc32)cc1`, the cell number change was -20.2%.
On the same count and under the same terms, under `Cc1cc(Cl)ccc1Oc1ccccc1C(=O)CC#N` stands 16.1%.
For `COc1ccc(S(=O)(=O)Nc2nc3n(n2)C(c2ccc(Cl)cc2)CC(=O)N3)cc1` (configuration not stated), the cell number change came out at 16.5%. Moreover, the AC50 under setting [2] was 20.6 µM [rising, single point].
In the case of `Cc1ccc(NC(=O)CSc2nnc(-c3ccccc3Br)o2)cc1C`, the cell number change was -3.29%.
Regarding `COc1cc(NC(=O)CCN2CCN(Cc3ccccc3)CC2)cc(OC)c1`, the cell number change is -10.9%. For the same molecule, the AC50 under setting [2] is 16.4 µM [rising, partial curve].
With `CCOc1ccc(S(=O)(=O)N(CC(=O)O)c2ccccc2)cc1`, the cell number change is -8.99%. In addition, the half-maximal activity concentration (AC50) under setting [2] is 5.17 µM [rising, single point].
Take `O=C(CSc1nnc(-c2ccncc2)n1-c1ccccc1)N1CCN(c2ccc(Cl)cc2)CC1`: the cell number change amounted to 3.49%. In addition, the AC50 under setting [2] was 16.4 µM [rising, single point].
Consider `CC/C(=C(\c1ccc(O)cc1)c1ccc(OCCN(C)C)cc1)c1ccccc1`, for which the cell number change is -48.5%. Further, the AC50 under setting [1] is 20.6 µM [falling, single point]. In addition, the AC50 under setting [2] was 23.1 µM [falling, single point].
In the case of `COc1cc(CNCCN2CCOCC2)ccc1OCC(=O)NC(C)(C)C`, the cell number change was 12.5%. Moreover, the AC50 under setting [1] was 5.8 µM [falling, partial curve].
For the molecule `C=CCC(NCc1ccco1)c1ccc(OC)c(OC)c1` (configuration not stated), the AC50 under setting [2] is 0.82 µM [falling, full curve].
For the molecule `Cc1ccc(NC(=O)c2ccc3c(c2)OCCO3)cc1C`, the AC50 by setting is: under setting [1], 0.291 µM [rising, full curve]; under setting [2], 0.58 µM [falling, single point].
Take `COc1ccc(-c2nn3c(-c4ccccn4)nnc3s2)cc1OC`: the cell number change was -36.2%. Besides, the AC50 under setting [1] was 14.6 µM [falling, partial curve, poor fit]. Under setting [2], the concentration at half-maximal activity (AC50) is 18.4 µM [falling, partial curve, poor fit].
Regarding `Cc1cc2nc(-c3ccc(SCC(=O)N4CCOCC4)nc3)[nH]c2cc1C`, the half-maximal activity concentration (AC50) runs as follows: under setting [1], 2.91 µM [falling, partial curve, poor fit]; under setting [2], 0.13 µM [falling, full curve, poor fit].
Consider `CCCCCOc1ccc(N2C(=O)CC(N(O)c3ccccc3)C2=O)cc1` (configuration not stated), for which the cell number change is -15%. The AC50 under setting [2] is 0.00411 µM [rising, full curve, poor fit].
